{"source": "patent US10988457B2", "about": "“TLR inhibitors” (Insilico Medicine IP Limited, priority 2019, dated 2021)", "key": {"TLR7/8 [1]": {"test_system": "TLR7/8", "conditions": "reference compound 100 nM, human PBMC's, 24 hours", "procedure": "Namely, in the present experiment their ability was evaluated to inhibit TLR7/8 in human PBMC's, as measured by the release of specific cytokines. The following cytokines were measured for a complete cytokine response profile (no dilution of samples): IL-1β, IL-6, IL-12p40, TNFα and IFNα.\nLevels of each cytokine induction were interpolated from standard curves using a 5-parameter non-linear regression analysis, where y=(A+((B−A)/(1+(((B−E)/(E−A))*((x/C)^D))))). The interpolated data were then normalized to the vehicle control. Percent of control (PoC) was also calculated using the formula, PoC=(test sample/positive vehicle control)×100.\n(§1) Cryopreserved human PBMC's were drip-thawed. Cells were diluted to the appropriate density (1×10^5 per well) and seeded into 96-well polypropylene plates with 150 μL per well of culture medium (RPMI 1640, 10% heat-inactivated Fetal Bovine Serum (FBS), 1% penicillin/streptomycin, 2 mM L-glutamine) for compound test wells. For the control wells, cells (1×10^5 per well) were plated in 150 μL per well of culture medium.\nCells were incubated at 37° C., 5% CO2 for 1 hour prior to the addition of test compounds or controls. […]\nHarvested cell culture supernatants were measured for IL-1β, IL-6, IL-12p40, TNFα and IFNα release to assess dual TLR7/8 inhibition."}, "TLR7/8 [2]": {"test_system": "TLR7/8", "assay": "TLR7/8 Inhibition Assay IC50 in human PBMC's, cytokine release after CL075 stimulation (Luminex)", "format": "cell-based", "conditions": "reference compound 100 nM, 24 hours", "procedure": "as §1, with “FBS,” for “Fetal Bovine Serum (FBS),”, “wells.” for “wells. For the control wells, cells (1×10^5 per well) were plated in 150 μL per well of culture medium.”\nConsequently, the final DMSO vehicle concentration in the assay was from 1 to 0.5%.\nThan plates were centrifuged at 200×g for 10 minutes. […] Cytokine levels in each sample were determined using Luminex methodology, per the manufacturer's protocol.\nThe interpolated data were then normalized to the vehicle or unstimulated control.\nOutlier calculation was performed using the Grubbs maximum normed residual test.\nEight test compounds were evaluated for their ability to inhibit the TLR7/8 in PBMC's from one human donor following incubation of 24 hours."}}, "note": "Where two headings read alike, the source gives them in different places. At least one structure is not confirmed: it was looked up by name or label, or the drawing left a doubt."}
{"smiles": "C[C@@H]1C[C@H]2[C@@H]3CCC4=CC(=O)C=C[C@]4(C)[C@@]3(F)[C@@H](O)C[C@]2(C)[C@@]1(O)C(=O)CO", "note": "[Dexamethasone, dexamethasone]", "values": [{"measurement": "release of cytokines induced by CL075 treatment (in words)", "setting": "TLR7/8 [1]", "value": "inhibited the release of cytokines within expected ranges"}, {"measurement": "release of cytokines induced by CL075 treatment (in words)", "setting": "TLR7/8 [2]", "value": "inhibited the release of cytokines within expected ranges"}]}
